This note sets out measurements from US20220089752A1 (University of California, published 2022).

Amino acid sequences for entries named in this document (tags omitted). A change or cut given only in a name is not applied to a line headed by its entry. Residues count along the entry.
UniProt Q03145, residues 26-535: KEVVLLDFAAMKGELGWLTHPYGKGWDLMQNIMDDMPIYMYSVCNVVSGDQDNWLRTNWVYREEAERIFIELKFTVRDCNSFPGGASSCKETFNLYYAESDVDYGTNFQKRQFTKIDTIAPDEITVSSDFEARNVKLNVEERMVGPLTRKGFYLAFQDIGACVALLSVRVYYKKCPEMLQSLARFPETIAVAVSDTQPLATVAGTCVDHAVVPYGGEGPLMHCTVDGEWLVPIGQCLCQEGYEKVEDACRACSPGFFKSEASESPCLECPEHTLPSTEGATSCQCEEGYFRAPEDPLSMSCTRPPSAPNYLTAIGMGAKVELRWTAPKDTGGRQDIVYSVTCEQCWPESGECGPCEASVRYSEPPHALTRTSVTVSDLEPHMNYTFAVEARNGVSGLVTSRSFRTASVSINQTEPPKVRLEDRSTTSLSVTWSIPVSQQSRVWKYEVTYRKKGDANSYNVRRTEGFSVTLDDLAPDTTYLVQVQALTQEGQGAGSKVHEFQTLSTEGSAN
UniProt P29317: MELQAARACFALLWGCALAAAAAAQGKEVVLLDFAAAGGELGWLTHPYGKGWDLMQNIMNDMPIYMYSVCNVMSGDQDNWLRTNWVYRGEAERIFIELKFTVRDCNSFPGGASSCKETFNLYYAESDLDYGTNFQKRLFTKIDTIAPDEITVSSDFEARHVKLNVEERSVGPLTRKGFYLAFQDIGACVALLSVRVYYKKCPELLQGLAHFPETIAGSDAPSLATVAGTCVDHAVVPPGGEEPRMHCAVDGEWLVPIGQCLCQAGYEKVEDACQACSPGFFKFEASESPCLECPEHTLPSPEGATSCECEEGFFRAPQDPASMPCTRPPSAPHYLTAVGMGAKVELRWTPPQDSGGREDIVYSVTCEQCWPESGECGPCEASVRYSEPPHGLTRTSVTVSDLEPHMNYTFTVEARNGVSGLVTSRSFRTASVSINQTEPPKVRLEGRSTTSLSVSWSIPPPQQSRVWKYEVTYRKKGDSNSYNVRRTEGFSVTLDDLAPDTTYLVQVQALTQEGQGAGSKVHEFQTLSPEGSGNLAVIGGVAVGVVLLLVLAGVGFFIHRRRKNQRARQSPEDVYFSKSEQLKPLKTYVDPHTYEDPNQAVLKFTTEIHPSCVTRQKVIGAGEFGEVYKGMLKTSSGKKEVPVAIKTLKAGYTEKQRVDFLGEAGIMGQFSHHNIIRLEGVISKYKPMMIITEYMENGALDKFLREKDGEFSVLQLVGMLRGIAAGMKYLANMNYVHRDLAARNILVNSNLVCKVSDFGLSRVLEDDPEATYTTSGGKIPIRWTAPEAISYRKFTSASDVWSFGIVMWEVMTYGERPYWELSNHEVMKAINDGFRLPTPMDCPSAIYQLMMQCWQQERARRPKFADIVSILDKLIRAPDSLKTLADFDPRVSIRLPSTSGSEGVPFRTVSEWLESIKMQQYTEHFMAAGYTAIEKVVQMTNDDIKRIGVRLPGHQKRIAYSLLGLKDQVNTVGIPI
ephrin type-A receptor 2 (EphA2) on cells: residues 24-976 of P29317

Changes are numbered by the printed parent chain. No constants are given. Whether binding was seen depends on the method and setting. Some binding calls cover weakened binding; strength is not graded here.

Assay [1] concerns the target mouse recombinant EphA2-Fc fusion protein (mouse) (UniProt Q03145). The experiment in a line: flow cytometry of yeast-displayed scFv with mouse recombinant EphA2-Fc at 0-100 nM.
The target in assay [2] is T1, recombinant human EphA2 (human, UniProt P29317 25-534).
T1 construct: also called human recombinant EphA2 protein
The experiment in a line: flow cytometry of yeast-displayed scFv with recombinant human EphA2 at 0-100 nM. The source says:
In this experiment, RYRgerm is the germline version of RYR. The remaining samples were RYRgerm derivatives with high binding affinity. Apparent KD values were estimated by curve-fitting of normalized MFI values. FIG. 10B: Apparent KD measurement of four new EphA2 scFvs binding affinity to mouse recombinant EphA2-Fc fusion protein. Apparent KD values were estimated by curve-fitting of normalized MFI values.
This Example describes experiments performed to identify new versions of EphA2 binding scFv antibodies with improved binding affinity. The original EphA2 binding scFv RYR has been described previously in PCT/US2015/039741, in which EphA2 binding scFv RYR was named HCA-F1 and a germline version of RYR was named RYRgerm. To identify new versions of EphA2 binding scFv antibodies improved binding affinity for EphA2, yeast display mutagenesis libraries based on RYRgerm were generated and selected by FACS for higher affinity binders. Four new EphA2 scFvs with high binding affinity for EphA2 were identified and named […], RYRgerm_102919_15, RYRgerm_102919_22, and RYRgerm_102919_33, respectively. The amino acid sequences of VH and VL regions as well as the CDRs for these newly identified EphA2 scFvs are presented in Tables 4-5 and the Sequence Listing. In these eperiments, both human and mouse recombinant EphA2 proteins were used in selection to maintain cross-species binding. Apparent affinity was measured by flow cytometry for binding to both human and mouse EphA2.

The target of assay [3] is T1, recombinant human EphA2. The experiment in a line: biolayer interferometry, IgG1 loaded on anti-human Fc probes, 100 nM recombinant human EphA2, 25 C.
For assay [4], the target named is ephrin type-A receptor 2 (EphA2) on cells (human) (UniProt P29317). The experiment in a line: FACS of RYR IgG on single cells from adherent- or sphere-cultured L3.6pl, Alexa 647 anti-human IgG.
Assay [5] has the same target. The experiment in a line: FACS on DU145 cells, IgG1 for 1 h at 25 C, anti-human Alexa Fluor 647.

B1: RYRgerm_102919_22 scFv (scFv)
scFv: EVQLVESGGGLVQPGGSLRLSCAASGFTFSSYSMNWVRQAPGKGLEWVSYISSSSSTIYYADSVKGRFTISRDNAKNSLYLQMNSLRAEDTAVYYCARYRLPNFWSGYPNYGMDVWGQGTTVTVSSGGGGSGGGGSGGGGSQSVLTQPPSVSGAPGQRVTISCTGSSSNIGAGYDVHWYQQLPGTAPKLLIYGNSNRPSGVPDRFSGSKSGTSASLAITGLQAEDEADYYCQSYDSSLSGHVVFGGGTKLTVL
With B1, the binding entry (in assay [1]; with recombinant human EphA2 [2]) was “binds” throughout.

B2: RYRgerm_102919_15 scFv (scFv)
scFv: B1 scFv with M113T
With B2, the binding entry with recombinant human EphA2 [2] is recorded as “binds”.

B3: RYRgerm_102919_14 scFv (scFv)
scFv: B1 scFv with F29S
notes: also called RYRgerm_102019_14
Take B3: the binding entry with recombinant human EphA2 [2] was “binds”.

B4: RYRgerm_102919_33 scFv (scFv)
scFv: B1 scFv with L101F, N103D
For B4, the binding result (in assay [1]; with recombinant human EphA2 [2]) was “binds” in each case.

B5: RYR IgG1 (antibody, V domains shown)
VH: QVQLQESGGGLVQPGGSLRLSCAASGFTFSSYSMNWVRQAPGKGLEWVSYISSSSSTIYYADSVKGRFTISRDNAKNSLYLQMNSLRAEDTAVYYCARYRLPDFWSGYPNYGMDVWGQGTTVTVSS
VL: QSVLTQPPSVSGAPGQRVTISCTGSSSNIGAGYDVHWYQQLPGTAPKLLIYGNSNRPSGVPDRFSGSKSGTSASLAITGLQAEDEADYYCQSYDSSLSGHVVFGGGT
notes: Recombinant human IgG1 built from the original EphA2 scFv RYR; also called original RYR; HCA-F1
For B5, the binding result (with recombinant human EphA2 [3]; in assay [4]; in assay [5]) was “binds” in each case.

B6: RYRgerm_102919_15 IgG1 (antibody, V domains shown)
VH: B5 VH with Q1E, Q5V, D103N, M113T
VL: QSVLTQPPSVSGAPGQRVTISCTGSSSNIGAGYDVHWYQQLPGTAPKLLIYGNSNRPSGVPDRFSGSKSGTSASLAITGLQAEDEADYYCQSYDSSLSGHVVFGGGTKLTVL
notes: Recombinant human IgG1 built from the scFv RYRgerm_102919_15
In the case of B6, the binding entry in the assay with recombinant human EphA2 [3] is “binds”.
